From PubChem BioAssay AID248 (DTP/NCI, 2004)
The list does not hold the whole screen: it gathers tests that were run many times, whatever their T/C, doses with no T/C, and many T/C values between a quarter and a half above the control. Further doses and runs are listed elsewhere. T/C gives the treated animals as a percentage of the vehicle group. Some doses have a count of surviving animals in place of a T/C: the source files T/C as zero there, which appears to mark a toxic dose or a test without result, not a measured value. Some survivor counts are full or nearly so, which does not show that the dose was tolerated: survival well below the control is almost never listed, so the zero probably covers shortened survival too. Survivors were counted at the toxicity check, usually on the fifth day, unless a day is given; later deaths do not show. Schedules are NCI's codes, read here as Q, the interval in days (D) or hours (H), X, the number of doses. Where survival is the endpoint, the PubChem record calls one and a half times the control and up active, and a quarter to a half above the control has no call in these data; cut-offs in other NCI protocols can differ.

System: L1210 leukemia ip in BDF1 mice, survival T/C
Experiment: NCI In Vivo Anticancer Drug Screen. Data for tumor model L1210 Leukemia (intraperitoneal) in B6D2F1 (BDF1) mice
Conditions: T/C endpoint: mean survival time, higher T/C = longer survival
[1] = dose: 400.0 mg/kg/injection, schedule: Q04DX002 (ip), vehicle: saline with Tween-80

Structure (SMILES): O=C1C(Cl)=C(NC2CCCC2)C(=O)c2ccccc21
- survivor count (dose: 50.0 mg/kg/injection, schedule: Q01DX001 (ip), vehicle: saline with Tween-80): 2 of 6
- survivor count (dose: 100.0 mg/kg/injection, schedule: Q01DX001 (ip), vehicle: saline with Tween-80): 0 of 6
- survivor count (dose: 200.0 mg/kg/injection, schedule: Q01DX001 (ip), vehicle: saline with Tween-80): 0 of 6
- survivor count (dose: 400.0 mg/kg/injection, schedule: Q01DX001 (ip), vehicle: saline with Tween-80): 0 of 6

Structure (SMILES): Cc1ccc(NC(=O)NCCO)cc1C
- survivor count [1]: 2 of 3

Structure (SMILES): Nc1cc(Cl)c(Cl)c(Cl)c1
- survivor count (dose: 200.0 mg/kg/injection, schedule: Q01DX001 (ip), vehicle: carboxymethylcellulose (CMC)): 2 of 4

Structure (SMILES): CCCCCCCCCCCCCCCC[N+](C)(C)C1=C([O-])C(=O)N(c2ccc(Cl)c(Cl)c2)C1=O
- survivor count (dose: 200.0 mg/kg/injection, schedule: Q04DX002 (ip), vehicle: saline with Tween-80): 0 of 3
- survivor count [1]: 0 of 3

Structure (SMILES): [Cl][Pt+2][Cl].[NH-]CC1CCCC[N-]1 (centres undefined)
- T/C (dose: 25.0 mg/kg/injection, schedule: Q04DX003 (ip), vehicle: saline): 141 % of control
- T/C (dose: 50.0 mg/kg/injection, schedule: Q04DX003 (ip), vehicle: saline): 131 % of control

Structure (SMILES): Cc1cc(Cl)nc(Nc2nc3cc(Cl)c(Cl)cc3[nH]2)n1
- survivor count (dose: 25.0 mg/kg/injection, schedule: Q01DX009 (ip), vehicle: acetone): 6 of 6
- survivor count (dose: 50.0 mg/kg/injection, schedule: Q01DX009 (ip), vehicle: acetone): 6 of 6
- survivor count (dose: 100.0 mg/kg/injection, schedule: Q04DX003 (ip), vehicle: saline): 6 of 6
- survivor count (dose: 200.0 mg/kg/injection, schedule: Q04DX003 (ip), vehicle: saline): 6 of 6
- survivor count (dose: 400.0 mg/kg/injection, schedule: Q04DX003 (ip), vehicle: saline): 6 of 6

Structure (SMILES): Clc1cccc(Cl)c1C[n+]1ccccc1
- survivor count (dose: 37.5 mg/kg/injection, schedule: Q01DX001 (ip), vehicle: saline): 1 of 6
- survivor count (dose: 75.0 mg/kg/injection, schedule: Q01DX001 (ip), vehicle: saline): 0 of 6
- survivor count (dose: 150.0 mg/kg/injection, schedule: Q01DX001 (ip), vehicle: saline): 0 of 6
- survivor count (dose: 300.0 mg/kg/injection, schedule: Q01DX001 (ip), vehicle: saline): 0 of 6
